Results are given in words; binding and its absence hold for the method and conditions named. In cells and extracts the contact can be indirect. Some entries that bind do so weakly or less than the wild type.
Target: Apurinic/apyrimidinic endonuclease 1 (human (endogenous in HeLa)) (UniProt P27695)
Test: co-IP; APE1 immunoprecipitated (anti-APE1, Abcam ab192) from HeLa WT cells, untreated or after TBHP 1 h and 1 h recovery, or after IR and 1 h recovery; immunoblot for DNA-PKcs

Amino acid sequences for entries named in this document (tags omitted).
UniProt P27695: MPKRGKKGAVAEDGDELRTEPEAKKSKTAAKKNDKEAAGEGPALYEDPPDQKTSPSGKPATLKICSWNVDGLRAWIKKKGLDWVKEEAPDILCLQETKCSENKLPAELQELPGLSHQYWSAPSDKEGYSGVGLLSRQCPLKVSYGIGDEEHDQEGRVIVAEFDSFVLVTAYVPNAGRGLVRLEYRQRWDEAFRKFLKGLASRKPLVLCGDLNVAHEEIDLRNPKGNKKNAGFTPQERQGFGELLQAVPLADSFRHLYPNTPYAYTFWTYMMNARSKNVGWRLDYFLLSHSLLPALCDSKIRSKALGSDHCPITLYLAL
UniProt P78527: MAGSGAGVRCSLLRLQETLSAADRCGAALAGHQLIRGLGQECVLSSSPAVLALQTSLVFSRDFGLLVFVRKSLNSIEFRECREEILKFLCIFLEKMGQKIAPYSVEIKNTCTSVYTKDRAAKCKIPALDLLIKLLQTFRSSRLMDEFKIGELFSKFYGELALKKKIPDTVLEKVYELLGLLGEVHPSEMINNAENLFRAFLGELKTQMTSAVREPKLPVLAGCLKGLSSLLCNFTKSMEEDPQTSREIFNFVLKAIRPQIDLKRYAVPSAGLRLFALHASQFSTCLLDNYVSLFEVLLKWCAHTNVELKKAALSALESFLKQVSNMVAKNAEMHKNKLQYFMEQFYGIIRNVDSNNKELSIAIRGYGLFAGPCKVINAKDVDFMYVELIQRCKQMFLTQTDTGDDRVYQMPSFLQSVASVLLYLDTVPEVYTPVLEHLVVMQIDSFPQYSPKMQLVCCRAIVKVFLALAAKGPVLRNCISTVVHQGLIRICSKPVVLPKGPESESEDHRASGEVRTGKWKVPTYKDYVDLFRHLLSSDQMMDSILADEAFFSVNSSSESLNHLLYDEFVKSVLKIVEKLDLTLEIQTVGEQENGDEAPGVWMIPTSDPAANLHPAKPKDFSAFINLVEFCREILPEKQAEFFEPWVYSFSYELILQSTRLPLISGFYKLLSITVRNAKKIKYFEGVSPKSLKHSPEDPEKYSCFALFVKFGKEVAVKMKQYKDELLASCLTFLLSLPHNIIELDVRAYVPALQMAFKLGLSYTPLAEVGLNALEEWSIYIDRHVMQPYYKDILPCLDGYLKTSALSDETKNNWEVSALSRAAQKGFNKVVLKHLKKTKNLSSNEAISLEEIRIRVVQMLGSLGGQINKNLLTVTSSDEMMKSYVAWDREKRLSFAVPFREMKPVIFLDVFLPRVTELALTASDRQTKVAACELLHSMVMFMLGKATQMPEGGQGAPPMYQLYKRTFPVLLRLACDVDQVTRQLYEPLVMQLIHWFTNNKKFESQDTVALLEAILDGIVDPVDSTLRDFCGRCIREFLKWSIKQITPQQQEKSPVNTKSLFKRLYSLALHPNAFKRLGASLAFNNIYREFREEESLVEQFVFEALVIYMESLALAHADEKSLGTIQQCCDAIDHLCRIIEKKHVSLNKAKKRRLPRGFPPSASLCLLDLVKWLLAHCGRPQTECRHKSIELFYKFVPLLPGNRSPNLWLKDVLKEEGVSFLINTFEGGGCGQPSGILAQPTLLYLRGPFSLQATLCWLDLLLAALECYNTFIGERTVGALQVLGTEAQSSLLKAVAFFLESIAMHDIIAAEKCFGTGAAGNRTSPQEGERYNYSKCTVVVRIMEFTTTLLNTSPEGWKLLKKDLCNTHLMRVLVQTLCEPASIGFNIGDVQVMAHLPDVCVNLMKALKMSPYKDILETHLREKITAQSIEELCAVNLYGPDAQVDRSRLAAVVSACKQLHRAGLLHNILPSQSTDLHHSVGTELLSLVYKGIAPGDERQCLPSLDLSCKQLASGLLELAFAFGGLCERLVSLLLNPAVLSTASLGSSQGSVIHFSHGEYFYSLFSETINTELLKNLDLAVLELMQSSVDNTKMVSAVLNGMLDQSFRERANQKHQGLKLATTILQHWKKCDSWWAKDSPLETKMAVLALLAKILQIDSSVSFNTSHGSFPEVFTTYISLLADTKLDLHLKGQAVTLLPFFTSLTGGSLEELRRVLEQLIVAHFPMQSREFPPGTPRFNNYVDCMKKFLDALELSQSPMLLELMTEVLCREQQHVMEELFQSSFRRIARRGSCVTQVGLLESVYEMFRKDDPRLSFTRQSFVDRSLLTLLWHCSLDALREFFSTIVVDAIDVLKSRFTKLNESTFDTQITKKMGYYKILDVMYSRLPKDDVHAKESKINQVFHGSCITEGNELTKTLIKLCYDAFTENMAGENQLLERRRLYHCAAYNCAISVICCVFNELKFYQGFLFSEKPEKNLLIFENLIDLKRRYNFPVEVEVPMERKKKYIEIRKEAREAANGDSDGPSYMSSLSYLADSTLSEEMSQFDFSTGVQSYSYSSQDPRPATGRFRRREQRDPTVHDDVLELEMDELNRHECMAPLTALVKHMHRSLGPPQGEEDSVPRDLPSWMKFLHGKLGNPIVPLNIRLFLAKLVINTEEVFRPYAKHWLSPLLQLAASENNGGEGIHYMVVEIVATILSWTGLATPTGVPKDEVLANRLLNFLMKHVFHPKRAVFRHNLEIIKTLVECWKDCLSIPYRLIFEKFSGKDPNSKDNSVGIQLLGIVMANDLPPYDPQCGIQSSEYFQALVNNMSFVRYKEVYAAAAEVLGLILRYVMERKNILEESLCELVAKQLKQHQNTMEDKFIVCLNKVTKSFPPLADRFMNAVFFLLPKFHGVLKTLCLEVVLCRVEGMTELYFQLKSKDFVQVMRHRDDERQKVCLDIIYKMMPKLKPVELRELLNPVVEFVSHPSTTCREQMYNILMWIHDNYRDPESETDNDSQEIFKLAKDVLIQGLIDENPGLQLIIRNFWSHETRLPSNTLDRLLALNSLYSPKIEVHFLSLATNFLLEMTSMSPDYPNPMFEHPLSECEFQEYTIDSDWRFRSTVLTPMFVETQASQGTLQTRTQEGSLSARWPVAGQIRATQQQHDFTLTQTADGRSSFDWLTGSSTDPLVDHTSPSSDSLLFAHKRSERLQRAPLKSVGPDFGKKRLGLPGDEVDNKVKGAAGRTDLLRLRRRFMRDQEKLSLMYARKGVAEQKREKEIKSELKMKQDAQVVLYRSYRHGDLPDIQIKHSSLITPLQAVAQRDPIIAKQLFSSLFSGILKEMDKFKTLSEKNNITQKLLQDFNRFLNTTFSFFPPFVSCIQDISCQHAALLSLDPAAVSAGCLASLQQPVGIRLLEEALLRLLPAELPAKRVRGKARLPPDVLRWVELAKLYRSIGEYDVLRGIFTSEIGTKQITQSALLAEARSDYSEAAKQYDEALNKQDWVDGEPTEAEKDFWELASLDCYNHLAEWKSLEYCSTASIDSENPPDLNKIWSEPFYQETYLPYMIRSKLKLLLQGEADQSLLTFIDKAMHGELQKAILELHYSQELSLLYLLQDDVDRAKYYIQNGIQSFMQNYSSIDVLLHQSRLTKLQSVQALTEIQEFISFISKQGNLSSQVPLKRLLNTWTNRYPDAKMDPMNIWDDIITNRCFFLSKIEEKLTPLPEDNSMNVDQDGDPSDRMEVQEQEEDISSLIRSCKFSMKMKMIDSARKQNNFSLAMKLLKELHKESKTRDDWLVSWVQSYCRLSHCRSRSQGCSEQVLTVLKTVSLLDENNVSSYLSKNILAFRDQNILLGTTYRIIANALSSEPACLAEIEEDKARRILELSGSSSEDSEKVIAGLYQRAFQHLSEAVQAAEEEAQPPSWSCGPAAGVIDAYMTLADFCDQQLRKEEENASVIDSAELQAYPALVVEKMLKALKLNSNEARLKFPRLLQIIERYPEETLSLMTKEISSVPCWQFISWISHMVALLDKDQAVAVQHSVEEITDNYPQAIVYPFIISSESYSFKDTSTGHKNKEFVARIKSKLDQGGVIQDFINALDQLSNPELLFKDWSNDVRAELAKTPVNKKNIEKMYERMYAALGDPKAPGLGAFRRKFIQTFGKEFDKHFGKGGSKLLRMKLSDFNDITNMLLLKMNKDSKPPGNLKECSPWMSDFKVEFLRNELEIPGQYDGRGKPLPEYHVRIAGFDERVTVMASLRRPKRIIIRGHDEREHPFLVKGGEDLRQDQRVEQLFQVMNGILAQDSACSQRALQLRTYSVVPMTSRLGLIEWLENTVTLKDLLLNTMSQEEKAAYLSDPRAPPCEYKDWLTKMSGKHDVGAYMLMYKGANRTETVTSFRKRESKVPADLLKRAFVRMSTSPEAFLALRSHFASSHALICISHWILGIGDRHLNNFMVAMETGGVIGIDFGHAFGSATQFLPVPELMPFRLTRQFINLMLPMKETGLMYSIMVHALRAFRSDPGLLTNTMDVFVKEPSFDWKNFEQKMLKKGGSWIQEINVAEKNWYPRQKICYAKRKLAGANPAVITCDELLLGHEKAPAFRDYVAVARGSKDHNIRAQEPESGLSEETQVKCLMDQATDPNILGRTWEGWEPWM

binding: binds
Substance: DNA-dependent protein kinase catalytic subunit (from UniProt P78527 1-4128)

Reference: publication PMC9997026
